Taken from: PubChem BioAssay AID1224827 (NIAID, 2016)
The whole screen tested about 3,800 reagents; shown is a random part of them. Of all reagents, about 2,200 (57%) are marked active. 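Active means a strong reporter change in either direction; calls are per siRNA, not per gene; qiagen siRNAs gave weaker effects.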 A number with no mark means an inactive call. Reagents against one gene are numbered here. Reagent sequences are not shown.

Assay: 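Confirm genes whose knock-down changes LPS-driven TNF promoter activity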 (follow-up of hits)
Cell system: RAW264.7 G9 mouse macrophage reporter clone
Reagent: single siRNA against mouse genes, 100 nM siRNA
Time to read-out: siRNA for 2 days, then LPS about 16 h
Conditions: bacterial lipopolysaccharide (LPS), 10 ng/ml, cells fixed after overnight (about 16 h) stimulation
Measured: 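Imaged nuclear TNF reporter intensity, background removed, scaled per plate and to non-targeting control wells, as z-scores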
Direction: TNF reporter z-score, mean and TNF reporter z-score: higher = stronger Tnf promoter reporter signal; gene median z, three same-vendor siRNAs: higher = stronger Tnf reporter signal for the gene
Rule for the call: 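An siRNA is called active when its mean z-score over replicates is at least +2 or at most -2; control wells get no call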

| target gene | siRNA no. | TNF reporter z-score, mean | gene median z, three same-vendor siRNAs | TNF reporter z-score, repeat 1 | TNF reporter z-score, repeat 2 |
| --- | --- | --- | --- | --- | --- |
| C3ar1 (complement component 3a receptor 1) | 1 | -3.08 (active) | -3.63 | -3.09 | -3.08 |
| C3ar1 (complement component 3a receptor 1) | 2 | -3.81 (active) | -3.63 | -4.13 | -3.5 |
| C3ar1 (complement component 3a receptor 1) | 3 | -4.03 (active) | -3.63 | -3.76 | -4.3 |
| C3ar1 (complement component 3a receptor 1) | 4 | 0.553 | 0.181 | 1.67 | -0.561 |
| C3ar1 (complement component 3a receptor 1) | 5 | -0.142 | 0.181 | 0.923 | -1.21 |
| C3ar1 (complement component 3a receptor 1) | 6 | -0.0772 | 0.181 | 1.24 | -1.39 |
| Gtf2f1 (general transcription factor IIF, polypeptide 1) | 1 | 5.21 (active) | 1.45 | 6.75 | 3.67 |
| Gtf2f1 (general transcription factor IIF, polypeptide 1) | 2 | 1.45 | 1.45 | 0.0244 | 2.87 |
| Gtf2f1 (general transcription factor IIF, polypeptide 1) | 3 | -3.09 (active) | 1.45 | -3.2 | -2.98 |
| Gtf2f1 (general transcription factor IIF, polypeptide 1) | 4 | 0.974 | 0.093 | 1.93 | 0.0211 |
| Gtf2f1 (general transcription factor IIF, polypeptide 1) | 5 | 0.52 | 0.093 | 1.97 | -0.933 |
| Gtf2f1 (general transcription factor IIF, polypeptide 1) | 6 | -0.554 | 0.093 | 0.165 | -1.27 |
| Cct7 (chaperonin containing TCP1 subunit 7) | 1 | -3.63 (active) | -4.35 | -4.43 | -2.83 |
| Cct7 (chaperonin containing TCP1 subunit 7) | 2 | -4.48 (active) | -4.35 | -3.96 | -4.99 |
| Cct7 (chaperonin containing TCP1 subunit 7) | 3 | -4.41 (active) | -4.35 | -4.26 | -4.55 |
| Cct7 (chaperonin containing TCP1 subunit 7) | 4 | 1.98 | -0.451 | 4.54 | -0.59 |
| Cct7 (chaperonin containing TCP1 subunit 7) | 5 | 0.978 | -0.451 | 3.14 | -1.18 |
| Cct7 (chaperonin containing TCP1 subunit 7) | 6 | -0.671 | -0.451 | -0.313 | -1.03 |
| Rab32 (RAB32, member RAS oncogene family) | 1 | 0.815 | -2.8 | 0.888 | 0.742 |
| Rab32 (RAB32, member RAS oncogene family) | 2 | -2.8 (active) | -2.8 | -2.54 | -3.06 |
| Rab32 (RAB32, member RAS oncogene family) | 3 | -4.92 (active) | -2.8 | -5.6 | -4.25 |
| Rab32 (RAB32, member RAS oncogene family) | 4 | 3.09 (active) | -0.515 | 5.59 | 0.593 |
| Rab32 (RAB32, member RAS oncogene family) | 5 | -0.515 | -0.515 | -0.515 | -0.515 |
| Rab32 (RAB32, member RAS oncogene family) | 6 | -2.79 (active) | -0.515 | -3.53 | -2.05 |
| Scart2 (scavenger receptor family member expressed on T cells 2) | 1 | -1.07 | -2.11 | -1.66 | -0.474 |
| Scart2 (scavenger receptor family member expressed on T cells 2) | 2 | -1.95 | -2.11 | -2.56 | -1.34 |
| Scart2 (scavenger receptor family member expressed on T cells 2) | 3 | -3.52 (active) | -2.11 | -4.09 | -2.94 |
| Scart2 (scavenger receptor family member expressed on T cells 2) | 4 | 4.11 (active) | 2.37 | 7.85 | 0.375 |
| Scart2 (scavenger receptor family member expressed on T cells 2) | 5 | 2.59 (active) | 2.37 | 5.9 | -0.712 |
| Scart2 (scavenger receptor family member expressed on T cells 2) | 6 | 2.1 (active) | 2.37 | 4.37 | -0.17 |
| Psmb6 (proteasome (prosome, macropain) subunit, beta type 6) | 1 | 0.506 | -2.37 | 0.243 | 0.77 |
| Psmb6 (proteasome (prosome, macropain) subunit, beta type 6) | 2 | -2.37 (active) | -2.37 | -2.6 | -2.14 |
| Psmb6 (proteasome (prosome, macropain) subunit, beta type 6) | 3 | -2.85 (active) | -2.37 | -2.84 | -2.86 |
| Psmb6 (proteasome (prosome, macropain) subunit, beta type 6) | 4 | 5.36 (active) | 2.99 | 9.04 | 1.67 |
| Psmb6 (proteasome (prosome, macropain) subunit, beta type 6) | 5 | 2.76 (active) | 2.99 | 4.31 | 1.21 |
| Psmb6 (proteasome (prosome, macropain) subunit, beta type 6) | 6 | 2.44 (active) | 2.99 | 4.45 | 0.439 |
| Rnf8 (ring finger protein 8) | 1 | -3.96 (active) | -4.26 | -4.29 | -3.63 |
| Rnf8 (ring finger protein 8) | 2 | -4.09 (active) | -4.26 | -3.95 | -4.23 |
| Rnf8 (ring finger protein 8) | 3 | -4.98 (active) | -4.26 | -4.93 | -5.04 |
| Rnf8 (ring finger protein 8) | 4 | 1.38 | -1.34 | 3.97 | -1.21 |
| Rnf8 (ring finger protein 8) | 5 | 0.672 | -1.34 | 2.82 | -1.48 |
| Rnf8 (ring finger protein 8) | 6 | -2.09 (active) | -1.34 | -2.27 | -1.9 |
| Eif3g (eukaryotic translation initiation factor 3, subunit G) | 1 | 2.82 (active) | 0.428 | 1.47 | 4.17 |
| Eif3g (eukaryotic translation initiation factor 3, subunit G) | 2 | 0.428 | 0.428 | -0.528 | 1.38 |
| Eif3g (eukaryotic translation initiation factor 3, subunit G) | 3 | -2.86 (active) | 0.428 | -3.23 | -2.49 |
| Eif3g (eukaryotic translation initiation factor 3, subunit G) | 4 | -1.5 | -1.82 | -0.478 | -2.51 |
| Eif3g (eukaryotic translation initiation factor 3, subunit G) | 5 | -1.33 | -1.82 | 0.982 | -3.64 |
| Eif3g (eukaryotic translation initiation factor 3, subunit G) | 6 | -2.52 (active) | -1.82 | -1.13 | -3.91 |
| Chd4 (chromodomain helicase DNA binding protein 4) | 1 | 0.295 | -2.46 | 1.3 | -0.709 |
| Chd4 (chromodomain helicase DNA binding protein 4) | 2 | -2.46 (active) | -2.46 | -2.47 | -2.45 |
| Chd4 (chromodomain helicase DNA binding protein 4) | 3 | -4.83 (active) | -2.46 | -5.22 | -4.43 |
| Chd4 (chromodomain helicase DNA binding protein 4) | 4 | -1.7 | -2.25 | -1.75 | -1.66 |
| Chd4 (chromodomain helicase DNA binding protein 4) | 5 | -1.98 | -2.25 | -0.897 | -3.06 |
| Chd4 (chromodomain helicase DNA binding protein 4) | 6 | -2.99 (active) | -2.25 | -3.24 | -2.74 |
| Nfe2l2 (nuclear factor, erythroid derived 2, like 2) | 1 | -0.309 | -2.32 | -2.25 | 1.63 |
| Nfe2l2 (nuclear factor, erythroid derived 2, like 2) | 2 | -2.53 (active) | -2.32 | -2.75 | -2.32 |
| Nfe2l2 (nuclear factor, erythroid derived 2, like 2) | 3 | -2.77 (active) | -2.32 | -3.22 | -2.32 |
| Nfe2l2 (nuclear factor, erythroid derived 2, like 2) | 4 | 0.47 | -0.41 | 2.15 | -1.21 |
| Nfe2l2 (nuclear factor, erythroid derived 2, like 2) | 5 | -0.41 | -0.41 | -0.565 | -0.255 |
| Nfe2l2 (nuclear factor, erythroid derived 2, like 2) | 6 | -0.915 | -0.41 | 0.217 | -2.05 |

Part of the list above in another layout:
Nfe2l2 (nuclear factor, erythroid derived 2, like 2) #1 | TNF reporter z-score, mean: -0.309; gene median z, three same-vendor siRNAs: -2.32; TNF reporter z-score, repeat 1: -2.25; TNF reporter z-score, repeat 2: 1.63
Nfe2l2 (nuclear factor, erythroid derived 2, like 2) #2 | TNF reporter z-score, mean: -2.53 (active); gene median z, three same-vendor siRNAs: -2.32; TNF reporter z-score, repeat 1: -2.75; TNF reporter z-score, repeat 2: -2.32
Nfe2l2 (nuclear factor, erythroid derived 2, like 2) #3 | TNF reporter z-score, mean: -2.77 (active); gene median z, three same-vendor siRNAs: -2.32; TNF reporter z-score, repeat 1: -3.22; TNF reporter z-score, repeat 2: -2.32
Nfe2l2 (nuclear factor, erythroid derived 2, like 2) #4 | TNF reporter z-score, mean: 0.47; gene median z, three same-vendor siRNAs: -0.41; TNF reporter z-score, repeat 1: 2.15; TNF reporter z-score, repeat 2: -1.21
Nfe2l2 (nuclear factor, erythroid derived 2, like 2) #5 | TNF reporter z-score, mean: -0.41; gene median z, three same-vendor siRNAs: -0.41; TNF reporter z-score, repeat 1: -0.565; TNF reporter z-score, repeat 2: -0.255
